This passage reports binding results from PMC10709558.

Amino acid sequences for entries named in this document (tags omitted). A change or cut given only in a name is not applied to a line headed by its entry.
UniProt P05556: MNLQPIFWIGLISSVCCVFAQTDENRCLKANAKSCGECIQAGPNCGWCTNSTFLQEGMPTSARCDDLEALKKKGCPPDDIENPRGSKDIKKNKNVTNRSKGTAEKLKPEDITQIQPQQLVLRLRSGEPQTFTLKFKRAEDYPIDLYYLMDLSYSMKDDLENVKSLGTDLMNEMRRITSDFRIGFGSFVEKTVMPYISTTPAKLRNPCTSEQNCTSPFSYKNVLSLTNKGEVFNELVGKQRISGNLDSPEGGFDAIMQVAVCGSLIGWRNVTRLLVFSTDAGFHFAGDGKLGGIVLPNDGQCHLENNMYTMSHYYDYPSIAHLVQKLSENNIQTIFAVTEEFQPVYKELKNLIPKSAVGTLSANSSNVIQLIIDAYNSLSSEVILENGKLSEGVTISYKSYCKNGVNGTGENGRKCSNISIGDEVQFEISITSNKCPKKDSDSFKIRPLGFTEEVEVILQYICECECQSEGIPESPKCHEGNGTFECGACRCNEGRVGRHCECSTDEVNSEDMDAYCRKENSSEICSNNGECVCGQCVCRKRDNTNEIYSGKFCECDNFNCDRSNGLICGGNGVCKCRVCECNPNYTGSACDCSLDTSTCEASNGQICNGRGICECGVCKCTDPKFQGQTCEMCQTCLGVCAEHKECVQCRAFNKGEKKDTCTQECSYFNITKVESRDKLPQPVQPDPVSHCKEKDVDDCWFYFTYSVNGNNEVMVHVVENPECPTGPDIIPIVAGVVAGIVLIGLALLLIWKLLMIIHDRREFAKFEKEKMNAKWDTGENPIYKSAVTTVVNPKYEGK

Results are given in words; binding and its absence hold for the method and conditions named. In cells and extracts the contact can be indirect. Some binding calls cover weakened binding; strength is not graded here.

This experiment concerns the target T1, Kinesin Family Member 3B (human (endogenous in ESCC cells)) (UniProt O15066).
T1 sequence: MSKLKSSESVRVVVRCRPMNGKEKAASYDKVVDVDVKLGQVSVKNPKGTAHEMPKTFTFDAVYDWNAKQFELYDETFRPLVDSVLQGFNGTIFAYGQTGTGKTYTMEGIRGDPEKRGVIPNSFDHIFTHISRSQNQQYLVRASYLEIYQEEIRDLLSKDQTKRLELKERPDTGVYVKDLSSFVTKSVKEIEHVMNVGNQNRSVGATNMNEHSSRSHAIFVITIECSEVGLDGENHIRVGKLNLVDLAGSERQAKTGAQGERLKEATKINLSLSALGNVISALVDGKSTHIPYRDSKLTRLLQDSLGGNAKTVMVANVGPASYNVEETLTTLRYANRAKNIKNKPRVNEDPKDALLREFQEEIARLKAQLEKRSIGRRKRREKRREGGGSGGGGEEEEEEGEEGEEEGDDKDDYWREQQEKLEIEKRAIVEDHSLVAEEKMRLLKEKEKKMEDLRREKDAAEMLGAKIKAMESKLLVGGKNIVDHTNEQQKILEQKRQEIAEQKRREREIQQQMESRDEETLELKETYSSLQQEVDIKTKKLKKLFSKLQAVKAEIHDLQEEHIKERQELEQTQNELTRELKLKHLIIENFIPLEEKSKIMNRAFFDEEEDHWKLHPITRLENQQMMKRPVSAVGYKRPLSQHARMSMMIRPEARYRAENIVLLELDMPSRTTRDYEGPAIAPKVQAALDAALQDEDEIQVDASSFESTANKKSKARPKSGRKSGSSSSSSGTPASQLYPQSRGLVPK
As to the kind of experiment: co-IP; IP in ESCC cell lysates, detected by Western blot. For orientation: A western blot detects proteins with antibodies after separation by electrophoresis.

Turning to “Integrin-beta1 (from UniProt P05556 21-798) (receptor)”, the binding entry is “binds”.
